From article PMC11082194, “A common polymorphism in the Intelectin-1 gene influences mucus plugging in severe asthma” (Nature Communications, 2024)
These are yes or no findings as the source states them, for the method shown.

By UniProt entry, the sequences of proteins in these tests, tags left out. Residues count along the entry.
UniProt Q9HC84, residues 5653-5762: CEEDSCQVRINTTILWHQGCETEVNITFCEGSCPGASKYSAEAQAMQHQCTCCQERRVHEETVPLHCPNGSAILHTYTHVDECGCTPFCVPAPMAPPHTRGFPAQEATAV
UniProt Q8WWA0, residues 19-298: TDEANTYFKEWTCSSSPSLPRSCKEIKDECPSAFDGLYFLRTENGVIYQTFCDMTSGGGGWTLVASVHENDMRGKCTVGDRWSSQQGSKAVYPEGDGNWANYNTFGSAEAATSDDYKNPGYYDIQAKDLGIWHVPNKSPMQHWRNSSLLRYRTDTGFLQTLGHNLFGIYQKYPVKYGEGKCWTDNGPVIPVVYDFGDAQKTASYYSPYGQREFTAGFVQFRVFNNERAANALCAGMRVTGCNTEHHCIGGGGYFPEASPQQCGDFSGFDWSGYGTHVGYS

Biological target: MUC5B C-terminal recombinant peptide (AA5653-AA5762) (human) (UniProt Q9HC84)
Assay: ELISA; C-terminal recombinant peptide coated on NUNC Maxisorp plate overnight at 4 °C, 20 μg/mL, carbonate-bicarbonate buffer pH 9.6; FLAG-ITLN-1 10 μg/mL for 2 hours in binding buffer A (TBS, 3 mM CaCl3, 1% BSA, 0.05% Tween-20); anti-FLAG HRP, absorbance 450 nm; also with heparin 150 μg/mL; both purified

With “FLAG-tagged recombinant ITLN-1 (from UniProt Q8WWA0 19-298)” the binding was “no binding (tested: 10μg/mL)”.
